Here are results for 1 molecule from patent publication EP3839043A1, “SCREENING METHODS FOR COMPOUNDS MODULATING POLYAMINE TRANSPORT” (Katholieke Universiteit Leuven, priority 2019, dated 2021).

Structures are written as SMILES.

The test system of one data set is SH-SY5Y cells. As to the kind of experiment: MUH cytotoxicity assay. It is filed as cell-based, human. The conditions noted are these: increasing concentrations, 24 h. How it is done:
MUH cytotoxicity assay - SH-SY5Y cells were seeded in 96-well plates (1 X 10^4 cells per well) and allowed to adhere overnight. The cells were subsequently treated with increasing doses of the indicated compounds for 24-48 h. Following exposure, the cells were washed with PBS and stained with 300 µg/ml MUH (prepared in DMSO, dissolved in PBS) for 30 min at 37°C.

The target in the next data set is ATP13A2 (Homo sapiens, UniProt Q9NQ11). The conditions noted are these: WT-OE microsomes 20 µg, 60 s with [γ-32P] ATP. As to the method: PLoS One 13, e0193228, (2018)].
In case of purified ATP13A2, 125 µM PA and 125 µM PI(3,5)P2 were included in the reaction mixture. To determine the sensitivity of the ATP13A2 phosphoenzyme to ATP or a combination of ATP and SPM, 30 s after adding ^32P-ATP, samples were incubated with non-radioactive ATP (5 mM in experiments using microsomes, 1 mM when purified ATP13A2 was used) and SPM (1 mM) before the reaction was stopped at indicated time points. The incorporation of ^32P was visualized following SDS-PAGE under acidic conditions and subsequently detected by autoradiography (microsomes) or liquid scintillation counting (purified ATP13A2) (Liquid Scintillation Analyzer TRI-CARB 2900TR).

In another data set the target is T1, Microsomal ATP13A2 (Homo sapiens, UniProt Q9NQ11).
T1 construct: expressed in transfected cells; host or cells: SH-SY5Y human neuroblastoma cells, lentiviral transduction; microsomes solubilised with DDM
T1 sequence (Q9NQ11 1-1175 isoform Q9NQ11-3): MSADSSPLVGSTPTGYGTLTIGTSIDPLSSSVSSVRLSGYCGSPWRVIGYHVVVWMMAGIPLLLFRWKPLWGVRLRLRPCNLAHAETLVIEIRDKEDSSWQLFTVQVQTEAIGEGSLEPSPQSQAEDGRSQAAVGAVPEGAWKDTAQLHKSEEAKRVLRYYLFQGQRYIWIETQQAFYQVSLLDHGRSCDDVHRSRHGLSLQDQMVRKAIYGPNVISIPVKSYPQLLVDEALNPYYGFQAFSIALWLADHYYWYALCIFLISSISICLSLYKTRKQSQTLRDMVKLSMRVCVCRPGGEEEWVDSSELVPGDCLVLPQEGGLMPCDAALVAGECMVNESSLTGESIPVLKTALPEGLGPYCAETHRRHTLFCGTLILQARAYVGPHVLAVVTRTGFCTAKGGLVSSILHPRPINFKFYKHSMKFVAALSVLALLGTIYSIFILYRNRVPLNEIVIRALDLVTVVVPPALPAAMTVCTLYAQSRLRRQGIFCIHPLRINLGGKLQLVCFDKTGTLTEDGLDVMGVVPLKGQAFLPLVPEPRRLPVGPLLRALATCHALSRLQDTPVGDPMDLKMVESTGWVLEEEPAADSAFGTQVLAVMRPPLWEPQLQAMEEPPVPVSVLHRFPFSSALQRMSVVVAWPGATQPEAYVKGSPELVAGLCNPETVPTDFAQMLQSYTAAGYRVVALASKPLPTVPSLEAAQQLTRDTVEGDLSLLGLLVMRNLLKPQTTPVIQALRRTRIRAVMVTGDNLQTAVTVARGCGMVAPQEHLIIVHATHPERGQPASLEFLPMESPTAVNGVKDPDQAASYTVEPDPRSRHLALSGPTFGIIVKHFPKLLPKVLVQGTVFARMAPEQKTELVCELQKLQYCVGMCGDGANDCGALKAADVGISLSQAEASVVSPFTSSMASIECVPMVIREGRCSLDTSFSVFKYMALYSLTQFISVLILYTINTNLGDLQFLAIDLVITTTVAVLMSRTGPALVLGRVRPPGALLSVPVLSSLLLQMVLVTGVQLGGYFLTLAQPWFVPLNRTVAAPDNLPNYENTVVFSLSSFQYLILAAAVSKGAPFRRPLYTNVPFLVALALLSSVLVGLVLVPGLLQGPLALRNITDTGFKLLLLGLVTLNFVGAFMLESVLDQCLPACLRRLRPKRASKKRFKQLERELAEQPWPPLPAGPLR
As to the kind of experiment: ATPase assay (ADP-Glo Max), solubilized microsomes of SH-SY5Y cells overexpressing ATP13A2 WT. It is filed as biochemical. The conditions noted are these: indicated doses; microsomes 5 µg. How it is done:
Membrane fractionation - Transduced SH-SY5Y cells were seeded in […] at a density of 6 x 10^6 cells per plate. 24 h later, the cells were harvested following trypsinization and brief centrifugation (300 x g, 5 min). Subcellular fractionation was performed by differential centrifugation. The microsomal protein concentration was measured using the bicinchoninic acid assay (Thermo Fischer Scientific, Pierce) according to the manufacturer's instructions.
ATPase assay - The ATPase activity of ATP13A2 was assessed using a commercially available luminescence assay (ADP-Glo Max assay, Promega) that monitors the production of ADP via luciferase activity. The reactions were performed for 30 min (37°C) in a final volume of 25 µl. […] The assay was started by the addition of 5 mM ATP and was terminated by adding 25 µl of ADP-Glo Reagent. The 96-well plate was then incubated for 40 min at room temperature, followed by the addition of 50 µl of ADP-Glo Max Detection Reagent. After 40 min, luminescence was detected using a FlexStation 3.0 system (Molecular Devices). Dose-response curves and n/Km/Vmax values were calculated using GraphPad Prism Software (GraphPad Software Inc.).
A general note: In ADP-Glo the light output rises with the ADP produced.

On to `Cl.NCCC[C@H](N)C(=O)O` [ornithine, L-ornithine monohydrochloride], for which the “viability of control cells” value in the data set on SH-SY5Y cells is “not cytotoxic”. At ATP13A2, the ATP13A2 phospho-enzyme levels result is recorded as “not seen”. The “ATPase activity of ATP13A2, dose-response” value at Microsomal ATP13A2 is “did not induce ATP13A2 activity”.
